The other results are listed elsewhere or left out.
Columns and labels:
Experiment in all cases: glycan array binding signal (z-score within array); higher = stronger binding
Conditions in all cases: glycan notation: IUPAC condensed, linker removed
[1] = target: Neu5Ac(a2-6)Gal(b1-3)GlcNAc(b1-3)[Gal(b1-4)GlcNAc(b1-6)]Gal(b1-4)Glc
Outline: (§1)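 The Consortium for Functional Glycomics database supplied 3228 glycan arrays, of which those lacking an available protein sequence were dropped. The binding signal, a within-array Z-score, was averaged across arrays of the same protein sequence and across linkers. Negative scores can be read as non-binding.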

Neu5Ac(a2-6)Gal(b1-4)Glc = target: Neu5Ac(a2-6)Gal(b1-4)Glc
Outline: as §1

[2] = target: Neu5Ac(a2-6)Gal(b1-4)GlcNAc
Outline: as §1

[3] = target: Neu5Ac(a2-6)Gal(b1-4)GlcNAc(b1-2)Man
Outline: as §1

[4] = target: Neu5Ac(a2-6)Gal(b1-4)GlcNAc(b1-2)Man(a1-3)Man(b1-4)GlcNAc(b1-4)GlcNAc
Outline: as §1

[5] = target: Neu5Ac(a2-6)Gal(b1-4)GlcNAc(b1-2)Man(a1-3)[Gal(b1-4)GlcNAc(b1-2)Man(a1-6)]Man(b1-4)GlcNAc(b1-4)GlcNAc
Outline: as §1

[6] = target: Neu5Ac(a2-6)Gal(b1-4)GlcNAc(b1-2)Man(a1-3)[GlcNAc(b1-2)Man(a1-6)]Man(b1-4)GlcNAc(b1-4)GlcNAc
Outline: as §1

[7] = target: Neu5Ac(a2-6)Gal(b1-4)GlcNAc(b1-2)Man(a1-3)[GlcNAc(b1-4)][Neu5Ac(a2-6)Gal(b1-4)GlcNAc(b1-2)Man(a1-6)]Man(b1-4)GlcNAc(b1-4)GlcNAc
Outline: as §1

[8] = target: Neu5Ac(a2-6)Gal(b1-4)GlcNAc(b1-2)Man(a1-3)[Man(a1-6)]Man(b1-4)GlcNAc(b1-4)GlcNAc
Outline: as §1

[9] = target: Neu5Ac(a2-6)Gal(b1-4)GlcNAc(b1-2)Man(a1-3)[Neu5Ac(a2-3)Gal(b1-4)GlcNAc(b1-2)Man(a1-6)]Man(b1-4)GlcNAc(b1-4)GlcNAc
Outline: as §1

[10] = target: Neu5Ac(a2-6)Gal(b1-4)GlcNAc(b1-2)Man(a1-3)[Neu5Ac(a2-6)Gal(b1-4)GlcNAc(b1-2)Man(a1-6)]Man(b1-4)GlcNAc(b1-4)GlcNAc
Outline: as §1

[11] = target: Neu5Ac(a2-6)Gal(b1-4)GlcNAc(b1-2)Man(a1-3)[Neu5Ac(a2-6)Gal(b1-4)GlcNAc(b1-2)Man(a1-6)]Man(b1-4)GlcNAc(b1-4)[Fuc(a1-6)]GlcNAc
Outline: as §1

[12] = target: Neu5Ac(a2-6)Gal(b1-4)GlcNAc(b1-2)Man(a1-6)Man(b1-4)GlcNAc(b1-4)GlcNAc
Outline: as §1

[13] = target: Neu5Ac(a2-6)Gal(b1-4)GlcNAc(b1-2)Man(a1-6)[Gal(b1-4)GlcNAc(b1-2)Man(a1-3)]Man(b1-4)GlcNAc(b1-4)GlcNAc
Outline: as §1

[14] = target: Neu5Ac(a2-6)Gal(b1-4)GlcNAc(b1-2)Man(a1-6)[GlcNAc(b1-2)Man(a1-3)]Man(b1-4)GlcNAc(b1-4)GlcNAc
Outline: as §1

[15] = target: Neu5Ac(a2-6)Gal(b1-4)GlcNAc(b1-2)Man(a1-6)[Man(a1-3)]Man(b1-4)GlcNAc(b1-4)GlcNAc
Outline: as §1

[16] = target: Neu5Ac(a2-6)Gal(b1-4)GlcNAc(b1-2)[Neu5Ac(a2-6)Gal(b1-4)GlcNAc(b1-4)]Man(a1-3)[GlcNAc(b1-4)][Neu5Ac(a2-6)Gal(b1-4)GlcNAc(b1-2)[Neu5Ac(a2-6)Gal(b1-4)GlcNAc(b1-6)]Man(a1-6)]Man(b1-4)GlcNAc(b1-4)GlcNAc
Outline: as §1

[17] = target: Neu5Ac(a2-6)Gal(b1-4)GlcNAc(b1-2)[Neu5Ac(a2-6)Gal(b1-4)GlcNAc(b1-4)]Man(a1-3)[GlcNAc(b1-4)][Neu5Ac(a2-6)Gal(b1-4)GlcNAc(b1-4)Man(a1-6)]Man(b1-4)GlcNAc(b1-4)GlcNAc
Outline: as §1

[18] = target: Neu5Ac(a2-6)Gal(b1-4)GlcNAc(b1-2)[Neu5Ac(a2-6)Gal(b1-4)GlcNAc(b1-6)]Man(a1-6)[Neu5Ac(a2-6)Gal(b1-4)GlcNAc(b1-2)Man(a1-3)][GlcNAc(b1-4)]Man(b1-4)GlcNAc(b1-4)GlcNAc
Outline: as §1

[19] = target: Neu5Ac(a2-6)Gal(b1-4)GlcNAc(b1-3)Gal(b1-3)GlcNAc
Outline: as §1

[20] = target: Neu5Ac(a2-6)Gal(b1-4)GlcNAc(b1-3)Gal(b1-4)GlcNAc
Outline: as §1

[21] = target: Neu5Ac(a2-6)Gal(b1-4)GlcNAc(b1-3)Gal(b1-4)GlcNAc(b1-2)Man(a1-3)[Neu5Ac(a2-6)Gal(b1-4)GlcNAc(b1-3)Gal(b1-4)GlcNAc(b1-2)Man(a1-6)]GalNAc
Outline: as §1

[22] = target: Neu5Ac(a2-6)Gal(b1-4)GlcNAc(b1-3)Gal(b1-4)GlcNAc(b1-3)Gal(b1-4)GlcNAc
Outline: as §1

[23] = target: Neu5Ac(a2-6)Gal(b1-4)GlcNAc(b1-3)Gal(b1-4)GlcNAc(b1-3)Gal(b1-4)GlcNAc(b1-2)Man(a1-3)[Neu5Ac(a2-6)Gal(b1-4)GlcNAc(b1-3)Gal(b1-4)GlcNAc(b1-3)Gal(b1-4)GlcNAc(b1-2)Man(a1-6)]GalNAc
Outline: as §1

[24] = target: Neu5Ac(a2-6)Gal(b1-4)GlcNAc(b1-3)Gal(b1-4)GlcNAc(b1-3)GalNAc
Outline: as §1

[25] = target: Neu5Ac(a2-6)Gal(b1-4)GlcNAc(b1-3)Gal(b1-4)GlcNAc(b1-3)[Neu5Ac(a2-6)Gal(b1-4)GlcNAc(b1-3)Gal(b1-4)GlcNAc(b1-6)]GalNAc
Outline: as §1

[26] = target: Neu5Ac(a2-6)Gal(b1-4)GlcNAc(b1-3)Gal(b1-4)GlcNAc(b1-6)[Gal(b1-3)]GalNAc
Outline: as §1

[27] = target: Neu5Ac(a2-6)Gal(b1-4)GlcNAc(b1-3)Gal(b1-4)[Fuc(a1-3)]GlcNAc(b1-3)Gal(b1-4)[Fuc(a1-3)]GlcNAc
Outline: as §1

[28] = target: Neu5Ac(a2-6)Gal(b1-4)GlcNAc(b1-3)GalNAc
Outline: as §1

[29] = target: Neu5Ac(a2-6)Gal(b1-4)GlcNAc(b1-3)[Neu5Ac(a2-6)Gal(b1-4)GlcNAc(b1-6)]GalNAc
Outline: as §1

[30] = target: Neu5Ac(a2-6)Gal(b1-4)GlcNAc(b1-6)GalNAc
Outline: as §1

[31] = target: Neu5Ac(a2-6)Gal(b1-4)GlcNAc(b1-6)[Gal(b1-3)GlcNAc(b1-3)]Gal(b1-4)Glc
Outline: as §1

[32] = target: Neu5Ac(a2-6)Gal(b1-4)GlcNAc(b1-6)[Gal(b1-3)]GalNAc
Outline: as §1

[33] = target: Neu5Ac(a2-6)Gal(b1-4)GlcNAc6S
Outline: as §1

Neu5Ac(a2-6)GalNAc = target: Neu5Ac(a2-6)GalNAc
Outline: as §1

[34] = target: Neu5Ac(a2-6)GalNAc(b1-4)GlcNAc
Outline: as §1

[35] = target: Neu5Ac(a2-6)GalNAc(b1-4)GlcNAc6S
Outline: as §1

[36] = target: Neu5Ac(a2-6)GlcNAc(b1-4)GlcNAc
Outline: as §1

B1: EUL D1A (Oryza sativa) (protein)
chain: MFGFGHHHNQAPAAPSDPNQIFKIFCRANENYCLTVRDSAVVLAPVNPKDEHQHWFKDMRFSTKVKDGEGMPAFALVNKATGLAVKHSLGQSHPVKLVPFNPEYEDASVLWTESKDVGKGFRCIRMVNNTRLNLDAFHGDKDHGGVRDGTTVVLWEWCKGDNQSWKILPWGPEAHSSSPGAATACTIGGVPVHTVRVFSAAGEDYCLTVRNGTACLAPKNPRDDYQHWIKDMRHSNKIRDEEGYPAFALVNKVTGEAIKHSTGQGHPVKLVPYNPEYQDESVLWTESKDVGKGFRCIRMVNNIYLNFDAFHGDKDHGGIHDGTEIVLWKWCEGDNQRWKILPWILEQKLISEEDLNSAVDHHHHHH
glycan array binding signal (z-score) [1]: 1.01 | glycan array binding signal (z-score) (Neu5Ac(a2-6)Gal(b1-4)Glc): 0.537 | glycan array binding signal (z-score) [2]: -0.766 | glycan array binding signal (z-score) [3]: 0.783 | glycan array binding signal (z-score) [4]: -0.862 | glycan array binding signal (z-score) [5]: 0.096 | glycan array binding signal (z-score) [6]: -1.19 | glycan array binding signal (z-score) [7]: -1.57 | glycan array binding signal (z-score) [8]: -0.472 | glycan array binding signal (z-score) [9]: 0.227 | glycan array binding signal (z-score) [10]: 0.044 | glycan array binding signal (z-score) [11]: 1.81 | glycan array binding signal (z-score) [12]: -0.159 | glycan array binding signal (z-score) [13]: -0.206 | glycan array binding signal (z-score) [14]: 1.83 | glycan array binding signal (z-score) [15]: 0.639 | glycan array binding signal (z-score) [16]: 0.097 | glycan array binding signal (z-score) [17]: -0.399 | glycan array binding signal (z-score) [18]: 0.046 | glycan array binding signal (z-score) [19]: 0.833 | glycan array binding signal (z-score) [20]: -1.05 | glycan array binding signal (z-score) [21]: -0.626 | glycan array binding signal (z-score) [22]: -0.515 | glycan array binding signal (z-score) [23]: 0.511 | glycan array binding signal (z-score) [24]: -0.766 | glycan array binding signal (z-score) [25]: 1.73 | glycan array binding signal (z-score) [26]: 0.16 | glycan array binding signal (z-score) [27]: 0.203 | glycan array binding signal (z-score) [28]: -1.29 | glycan array binding signal (z-score) [29]: 2.04 | glycan array binding signal (z-score) [30]: -0.263 | glycan array binding signal (z-score) [31]: -0.493 | glycan array binding signal (z-score) [32]: -0.319 | glycan array binding signal (z-score) [33]: -1.56 | glycan array binding signal (z-score) (Neu5Ac(a2-6)GalNAc): -1.24 | glycan array binding signal (z-score) [34]: -0.999 | glycan array binding signal (z-score) [35]: -0.749 | glycan array binding signal (z-score) [36]: 0.693
